From PubChem BioAssay AID504444 (National Center for Advancing Translational Sciences (NCATS), 2011)
The whole screen tested about 360,000 compounds, of which about 7,500 (2.1%) were called active. Inconclusive means that the source gave no clear call. Such entries were picked first, then a sample of the others. Calls come from the whole dose curve; as a rule, active = well fitted inhibition curve with a large enough effect; inconclusive = small, poorly fitted or top-dose-only effect, or effect the other way; inactive = flat fitted curve, though single readings scatter. Where the call is inconclusive, the potency comes from a doubtful curve fit.

Assay: Nrf2 qHTS screen for inhibitors; note: nearly all actives have a fitted effect of over 60% in size
Conditions: A549 ARE-Fluc reporter, luciferase luminescence, 18-24 h; activity change, negative = inhibition: at 46 µM (top of the series)
Summary of the method: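 In this cell-based qHTS, ARE-driven firefly luciferase in A549 cells reports Nrf2 activity; the luminescent signal after BugLite lysis is the measured value, with a prior CellTiter-Fluor read for cell health.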
% is set by controls: 0 for no effect and ±100 for the full control effect; potency is the fitted concentration of half-maximal effect.

SMILES | Potency | activity change, negative = inhibition
CCCOC(=O)c1ccc(NC(=O)c2cccc(S(=O)(=O)N3CCN(C(C)=O)CC3)c2)cc1 | inconclusive: 29.1 µM [falling, single point] | –
COC(=O)c1cc2oc3ccccc3c2n1Cc1nc(-c2ccc(Cl)cc2)oc1C | – | inactive: 6.91%
O=C(NCc1ccccc1)C(=O)Nc1nc(C23CC4CC(CC(C4)C2)C3)cs1 | inconclusive: 0.58 µM [activator, full curve, poor fit] | –
Cc1c(OCc2nn[nH]n2)ccc2c3c(c(=O)oc12)CCCC3 | inconclusive: 32.6 µM [falling, single point] | –
O=C(c1ccc(Cn2c(=O)[nH]c3ccccc3c2=O)cc1)N1CCN(c2ccc(Cl)cc2)CC1 | inconclusive: 13 µM [falling, partial curve, poor fit] | –
CC(C)c1ccc(S(=O)(=O)c2ccc(NN)cc2)cc1 | inconclusive: 2.06 µM [falling, partial curve, poor fit] | –
CCc1ccc(CNC(=O)c2nn(-c3ccc(C)cc3)c(=O)c3c2c2ccccc2n3C)cc1 | – | inactive: -24.6%
COc1ccc(OC)c(NC(=O)CN2c3cccc4cccc(c34)S2(=O)=O)c1 | inconclusive: 14.6 µM [falling, partial curve, poor fit] | –
CCOc1ccc(N(CC(=O)NCc2ccco2)S(C)(=O)=O)cc1 | inconclusive: 20.6 µM [activator, partial curve, poor fit] | –
O=C(O)CCn1cc(/C=C2\SC(=S)NC2=O)c(-c2ccccc2)n1 | – | inactive: -13.5%
Cc1ccc(OCCCCN2CCC(C)CC2)cc1 | inconclusive: 5.17 µM [activator, partial curve, poor fit] | –
O=C(Nc1nc2c(s1)CCCC2)C1COc2ccccc2O1 (configuration not stated) | inconclusive: 0.92 µM [activator, partial curve] | –
O=C(Nc1ccc(S(=O)(=O)N2CCCC2)cc1)c1ccc(CN2CCc3ccccc3C2)cc1 | active: 1.46 µM | –
COC(=O)c1[nH]nc2c1C(=O)N(C1CCCCC1)C2=O | inconclusive: 6.51 µM [falling, single point] | –
Cc1ccccc1-c1cc2c(nn1)-c1ccccc1C2=O | inconclusive: 2.06 µM [activator, full curve] | –
O=C(NC(=S)Nc1ccccn1)c1ccco1 | inconclusive: 1.84 µM [activator, full curve, poor fit] | –
O=C(O)CCCC(=O)Nc1ccc(OCc2nc3ccccc3s2)cc1 | inconclusive: 18.4 µM [activator, single point] | –
CC(=O)Nc1ccc(/C=N/N2CCCCC2)cc1 | inconclusive: 16.4 µM [activator, partial curve] | –
COCCN(Cc1nc(C(c2ccccc2)c2ccccc2)no1)C(C)C | inconclusive: 0.517 µM [falling, full curve, poor fit] | –
O=C(CN1C(=O)C(c2ccc(F)cc2)=NC12CCCCCC2)Nc1ccccc1Cl | inconclusive: 16.4 µM [falling, single point] | –
Cc1cc(Nc2nc3ccccc3[nH]c2=O)n(-c2ccccc2)n1 | inconclusive: 29.1 µM [falling, single point] | –

SMILES | Potency | activity change, negative = inhibition
CC1=Nc2cc(C(=O)NCc3ccccc3Cl)ccc2Sc2c(C)ccc(C)c21 | – | inactive: 2.18%
COc1ccc(C2C(C(C)=O)=C(O)C(=O)N2c2cccnc2)c(OC)c1 (configuration not stated) | inconclusive: 16.4 µM [falling, single point] | –
COc1ccc(-c2ccc3c(N)c(C(=O)Nc4ccc(C(F)(F)F)cc4)sc3n2)cc1OC | inconclusive: 29.1 µM [falling, single point] | –
Cc1nc2cccnc2n1-c1cccc(C(=O)N2CCN(c3cccc(Cl)c3)CC2)c1 | inconclusive: 18.4 µM [falling, single point] | –
COc1ccc(-c2cc(C(=O)N3CCOCC3)c3ccccc3n2)cc1OC | – | inactive: 17.3%
COc1ccc2oc(C(=O)OCC(=O)N(Cc3ccccc3)C(C)(C)C)c(C)c2c1 | inconclusive: 32.6 µM [falling, single point] | –
Cc1ccc(C)c(N2CCN(S(=O)(=O)c3cc(-c4cc(C)no4)ccc3C)CC2)c1 | inconclusive: 23.1 µM [falling, partial curve, poor fit] | –
Cc1c(Br)cc(C(=O)NCc2ccco2)c(C)c1C | – | inactive: -4.43%
Cc1cccc(C)c1NC(=O)CN(C)C(=O)CCC(=O)N1CCOCC1 | – | inactive: -2.8%
CC(=O)Nc1ccc(NC(=O)CSc2ccc3nnc(CCNS(=O)(=O)c4ccc(C)cc4)n3n2)cc1 | – | inactive: 1.4%
CCn1c(SCC(=O)c2ccc(O)c(O)c2)nnc1-c1ccccc1 | inconclusive: 23.1 µM [activator, single point] | –
Cc1ccc(-n2nc(CO)c(C(=O)NCCCCc3ccccc3)n2)cc1C | – | inactive: 14.2%
O=C(Nc1c(C(=O)N2CCOCC2)oc2ccccc12)c1ccccc1Cl | inconclusive: 29.1 µM [falling, single point] | –
O=C(Cc1cccc(Cl)c1)Nc1ccc(Br)cc1 | inconclusive: 6.51 µM [activator, single point] | –
O=C(Cn1cnc2c(OCc3ccccc3)ncnc21)NCc1ccc2[nH]ccc2c1 | inconclusive: 29.1 µM [falling, single point] | –
CCC1Oc2ccccc2C(=O)N(CC(=O)c2ccc3c(c2)OCCO3)C1=O (configuration not stated) | inconclusive: 13 µM [activator, partial curve, poor fit] | –
Cc1c(C)n(C)c2ccc(C(=O)NCCCN3CCCCC3C)cc12 (configuration not stated) | inconclusive: 29.1 µM [activator, single point] | –
CN(C)C(CNC(=O)c1ccc(C2SCCS2)cc1)c1ccccc1 (configuration not stated) | inconclusive: 23.1 µM [activator, single point] | –
Brc1ccc(CSc2nnc(-c3ccco3)o2)cc1 | inconclusive: 5.8 µM [activator, full curve] | –
COCc1ccc(C(=O)N(C)CC2CCCN(CCc3ccc(OC)cc3)C2)o1 (configuration not stated) | inconclusive: 5.8 µM [activator, partial curve] | –
Cc1nc(SCC(=O)N2CCc3ccccc3C2)c2c(C)c(C)sc2n1 | inconclusive: 10.3 µM [falling, partial curve] | –

Sorted by molecular weight (high to low): 3 of the compounds above.
SMILES | Potency | activity change, negative = inhibition
COc1ccc(-c2cc(C(=O)N3CCOCC3)c3ccccc3n2)cc1OC | – | inactive: 17.3%
O=C(O)CCn1cc(/C=C2\SC(=S)NC2=O)c(-c2ccccc2)n1 | – | inactive: -13.5%
CCn1c(SCC(=O)c2ccc(O)c(O)c2)nnc1-c1ccccc1 | inconclusive: 23.1 µM [activator, single point] | –
